The target in this test is streptavidin-tagged RIG-I (STREP-RIG-I) (UniProt O95786). Kind of test: affinity purification with mass spectrometry.

Protein sequences, listed by entry. Tags and fused reporters are not part of them.
UniProt O95786: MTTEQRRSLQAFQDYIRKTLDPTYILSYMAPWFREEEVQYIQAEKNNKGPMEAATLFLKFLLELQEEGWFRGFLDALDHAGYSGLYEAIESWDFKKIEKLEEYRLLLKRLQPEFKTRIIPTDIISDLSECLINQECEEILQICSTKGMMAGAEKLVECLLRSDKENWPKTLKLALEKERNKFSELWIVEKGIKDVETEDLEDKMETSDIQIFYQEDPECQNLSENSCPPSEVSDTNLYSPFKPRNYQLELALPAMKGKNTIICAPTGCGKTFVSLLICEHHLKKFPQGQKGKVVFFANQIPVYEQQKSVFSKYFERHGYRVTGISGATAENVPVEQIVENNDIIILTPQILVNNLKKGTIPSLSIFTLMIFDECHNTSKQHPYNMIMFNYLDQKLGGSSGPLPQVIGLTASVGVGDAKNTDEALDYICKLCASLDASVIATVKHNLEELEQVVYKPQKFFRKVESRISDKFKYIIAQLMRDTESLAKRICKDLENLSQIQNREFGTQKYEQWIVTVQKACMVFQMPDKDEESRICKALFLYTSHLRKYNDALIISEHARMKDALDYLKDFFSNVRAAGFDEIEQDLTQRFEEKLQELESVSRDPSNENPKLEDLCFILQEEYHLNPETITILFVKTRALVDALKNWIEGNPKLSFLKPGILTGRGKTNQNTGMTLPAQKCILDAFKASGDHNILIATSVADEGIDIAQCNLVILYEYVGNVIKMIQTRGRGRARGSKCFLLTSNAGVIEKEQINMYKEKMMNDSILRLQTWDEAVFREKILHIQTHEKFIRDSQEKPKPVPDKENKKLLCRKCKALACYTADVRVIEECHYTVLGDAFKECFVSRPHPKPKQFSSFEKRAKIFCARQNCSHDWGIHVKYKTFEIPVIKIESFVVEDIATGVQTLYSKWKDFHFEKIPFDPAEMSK
UniProt P62258: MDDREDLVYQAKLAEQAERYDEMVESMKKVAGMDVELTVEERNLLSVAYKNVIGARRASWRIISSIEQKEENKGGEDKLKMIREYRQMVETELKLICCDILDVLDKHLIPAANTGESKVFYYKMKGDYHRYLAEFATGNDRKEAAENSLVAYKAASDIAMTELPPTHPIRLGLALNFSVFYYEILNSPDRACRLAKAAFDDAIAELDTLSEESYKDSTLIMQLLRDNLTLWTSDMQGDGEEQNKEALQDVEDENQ

Results are given in words; binding and its absence hold for the method and conditions named. In cells and extracts the contact can be indirect. A yes stands for co-enrichment or nearness to the bait. Other partners may have been found.

Take “14-3-3ε, endogenous in 293T cells (from UniProt P62258 1-255)”: the binding result is “binds”.

The values above are taken from publication PMC6073104.
